Data from the supplement of paper PMC6411743.
± gives the standard deviation of the averaged measurements. The list shows a part of the results, in another mix than the full data.

Chains of the proteins cited; added tags and fusions are not shown. Lines headed by an entry give the natural chain unless they say otherwise; changes in a name come on top.
UniProt Q0VD83: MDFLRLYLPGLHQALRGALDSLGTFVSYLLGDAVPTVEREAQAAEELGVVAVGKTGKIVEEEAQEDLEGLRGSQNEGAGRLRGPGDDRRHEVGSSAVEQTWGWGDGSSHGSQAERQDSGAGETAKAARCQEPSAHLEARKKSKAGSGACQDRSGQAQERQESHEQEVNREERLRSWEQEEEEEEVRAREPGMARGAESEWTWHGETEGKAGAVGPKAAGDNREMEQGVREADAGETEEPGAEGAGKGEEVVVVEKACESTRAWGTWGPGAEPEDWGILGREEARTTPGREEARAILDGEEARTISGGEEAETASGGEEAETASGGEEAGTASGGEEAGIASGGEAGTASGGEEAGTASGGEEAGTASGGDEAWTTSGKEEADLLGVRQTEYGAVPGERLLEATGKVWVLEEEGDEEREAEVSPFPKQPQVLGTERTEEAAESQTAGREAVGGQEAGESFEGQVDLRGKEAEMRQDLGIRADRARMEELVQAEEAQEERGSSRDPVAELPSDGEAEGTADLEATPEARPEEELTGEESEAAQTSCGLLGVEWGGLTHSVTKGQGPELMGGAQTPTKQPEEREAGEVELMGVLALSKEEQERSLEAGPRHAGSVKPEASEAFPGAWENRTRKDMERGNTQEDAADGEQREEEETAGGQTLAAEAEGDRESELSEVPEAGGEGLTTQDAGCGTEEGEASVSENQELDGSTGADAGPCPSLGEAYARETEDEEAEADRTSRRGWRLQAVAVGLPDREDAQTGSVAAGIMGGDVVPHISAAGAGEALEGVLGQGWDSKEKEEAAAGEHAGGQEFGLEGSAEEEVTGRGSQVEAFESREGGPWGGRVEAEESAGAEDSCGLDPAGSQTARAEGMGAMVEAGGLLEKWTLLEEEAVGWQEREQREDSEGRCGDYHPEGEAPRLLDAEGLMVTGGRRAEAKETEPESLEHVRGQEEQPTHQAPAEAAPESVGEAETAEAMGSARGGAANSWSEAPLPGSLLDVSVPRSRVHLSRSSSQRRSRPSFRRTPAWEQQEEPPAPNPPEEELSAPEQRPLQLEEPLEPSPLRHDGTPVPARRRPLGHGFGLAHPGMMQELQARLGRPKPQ
UniProt Q13423: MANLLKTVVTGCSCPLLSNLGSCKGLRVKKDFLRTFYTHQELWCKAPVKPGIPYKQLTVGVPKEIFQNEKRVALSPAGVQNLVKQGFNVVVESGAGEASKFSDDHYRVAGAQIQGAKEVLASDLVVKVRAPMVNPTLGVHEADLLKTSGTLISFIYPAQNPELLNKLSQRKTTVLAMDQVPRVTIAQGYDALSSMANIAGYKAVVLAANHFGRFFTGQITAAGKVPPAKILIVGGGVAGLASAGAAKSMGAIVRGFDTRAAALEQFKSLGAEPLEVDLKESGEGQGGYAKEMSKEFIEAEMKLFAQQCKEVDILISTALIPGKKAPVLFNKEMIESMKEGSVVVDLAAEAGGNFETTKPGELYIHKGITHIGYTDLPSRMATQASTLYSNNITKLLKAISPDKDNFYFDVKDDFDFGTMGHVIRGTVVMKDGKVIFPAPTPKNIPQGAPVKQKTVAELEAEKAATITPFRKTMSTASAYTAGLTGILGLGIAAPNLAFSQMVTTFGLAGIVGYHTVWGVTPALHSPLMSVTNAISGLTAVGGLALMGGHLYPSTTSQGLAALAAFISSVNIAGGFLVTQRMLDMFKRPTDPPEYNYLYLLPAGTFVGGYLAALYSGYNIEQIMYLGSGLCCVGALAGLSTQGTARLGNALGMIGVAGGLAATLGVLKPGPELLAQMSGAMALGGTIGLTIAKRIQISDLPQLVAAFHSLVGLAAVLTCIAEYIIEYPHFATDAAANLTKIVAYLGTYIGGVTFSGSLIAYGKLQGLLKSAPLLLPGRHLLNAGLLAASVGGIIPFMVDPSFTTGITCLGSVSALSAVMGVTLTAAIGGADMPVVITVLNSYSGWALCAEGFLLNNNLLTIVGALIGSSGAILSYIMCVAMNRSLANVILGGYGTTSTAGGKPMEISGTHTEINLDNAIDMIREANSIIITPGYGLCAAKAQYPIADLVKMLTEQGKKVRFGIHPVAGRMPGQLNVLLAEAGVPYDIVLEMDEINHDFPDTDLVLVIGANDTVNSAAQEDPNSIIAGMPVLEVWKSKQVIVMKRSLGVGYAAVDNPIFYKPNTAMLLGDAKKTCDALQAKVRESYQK
UniProt Q13542: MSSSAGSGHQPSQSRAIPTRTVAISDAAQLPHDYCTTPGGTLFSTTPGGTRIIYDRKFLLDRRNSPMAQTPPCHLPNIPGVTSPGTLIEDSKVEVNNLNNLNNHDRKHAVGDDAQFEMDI
UniProt Q08945, whole entry: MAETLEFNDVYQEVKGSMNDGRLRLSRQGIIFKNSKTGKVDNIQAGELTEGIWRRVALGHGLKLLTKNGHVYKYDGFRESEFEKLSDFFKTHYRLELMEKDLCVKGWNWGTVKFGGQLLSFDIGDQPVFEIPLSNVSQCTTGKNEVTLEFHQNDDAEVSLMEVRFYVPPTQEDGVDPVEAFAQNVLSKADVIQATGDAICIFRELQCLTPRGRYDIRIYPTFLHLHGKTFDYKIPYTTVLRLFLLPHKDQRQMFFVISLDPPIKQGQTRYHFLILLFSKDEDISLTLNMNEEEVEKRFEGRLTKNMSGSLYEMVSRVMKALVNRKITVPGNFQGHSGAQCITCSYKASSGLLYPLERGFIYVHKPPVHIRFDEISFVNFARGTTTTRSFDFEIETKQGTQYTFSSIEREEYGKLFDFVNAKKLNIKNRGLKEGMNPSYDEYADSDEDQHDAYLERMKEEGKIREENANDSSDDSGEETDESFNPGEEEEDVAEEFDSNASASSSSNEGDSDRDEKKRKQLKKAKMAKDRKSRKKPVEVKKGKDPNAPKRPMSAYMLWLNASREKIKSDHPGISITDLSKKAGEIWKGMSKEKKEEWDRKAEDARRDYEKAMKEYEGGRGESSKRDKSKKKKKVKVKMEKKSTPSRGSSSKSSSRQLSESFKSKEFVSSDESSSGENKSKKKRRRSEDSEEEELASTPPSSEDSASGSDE
UniProt Q14137: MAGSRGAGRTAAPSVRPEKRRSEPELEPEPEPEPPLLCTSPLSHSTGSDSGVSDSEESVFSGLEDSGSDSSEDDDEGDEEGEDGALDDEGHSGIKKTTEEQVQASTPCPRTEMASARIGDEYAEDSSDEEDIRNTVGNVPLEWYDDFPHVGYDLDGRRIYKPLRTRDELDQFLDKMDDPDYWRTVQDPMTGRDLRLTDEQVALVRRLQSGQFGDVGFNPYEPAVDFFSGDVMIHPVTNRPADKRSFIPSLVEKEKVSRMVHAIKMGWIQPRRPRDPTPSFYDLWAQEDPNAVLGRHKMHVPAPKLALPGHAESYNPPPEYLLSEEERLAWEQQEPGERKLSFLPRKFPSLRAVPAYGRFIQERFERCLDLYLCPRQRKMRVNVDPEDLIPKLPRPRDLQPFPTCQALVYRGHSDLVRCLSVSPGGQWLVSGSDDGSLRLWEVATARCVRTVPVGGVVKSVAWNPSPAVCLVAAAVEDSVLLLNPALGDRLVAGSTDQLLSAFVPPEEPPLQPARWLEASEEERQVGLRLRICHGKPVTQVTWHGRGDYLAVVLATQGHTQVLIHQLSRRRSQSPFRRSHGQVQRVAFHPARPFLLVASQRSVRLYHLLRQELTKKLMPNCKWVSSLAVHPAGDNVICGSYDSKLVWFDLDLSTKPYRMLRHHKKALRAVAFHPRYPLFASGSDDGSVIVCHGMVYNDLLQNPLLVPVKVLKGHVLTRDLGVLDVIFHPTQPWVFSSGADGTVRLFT
UniProt Q14118: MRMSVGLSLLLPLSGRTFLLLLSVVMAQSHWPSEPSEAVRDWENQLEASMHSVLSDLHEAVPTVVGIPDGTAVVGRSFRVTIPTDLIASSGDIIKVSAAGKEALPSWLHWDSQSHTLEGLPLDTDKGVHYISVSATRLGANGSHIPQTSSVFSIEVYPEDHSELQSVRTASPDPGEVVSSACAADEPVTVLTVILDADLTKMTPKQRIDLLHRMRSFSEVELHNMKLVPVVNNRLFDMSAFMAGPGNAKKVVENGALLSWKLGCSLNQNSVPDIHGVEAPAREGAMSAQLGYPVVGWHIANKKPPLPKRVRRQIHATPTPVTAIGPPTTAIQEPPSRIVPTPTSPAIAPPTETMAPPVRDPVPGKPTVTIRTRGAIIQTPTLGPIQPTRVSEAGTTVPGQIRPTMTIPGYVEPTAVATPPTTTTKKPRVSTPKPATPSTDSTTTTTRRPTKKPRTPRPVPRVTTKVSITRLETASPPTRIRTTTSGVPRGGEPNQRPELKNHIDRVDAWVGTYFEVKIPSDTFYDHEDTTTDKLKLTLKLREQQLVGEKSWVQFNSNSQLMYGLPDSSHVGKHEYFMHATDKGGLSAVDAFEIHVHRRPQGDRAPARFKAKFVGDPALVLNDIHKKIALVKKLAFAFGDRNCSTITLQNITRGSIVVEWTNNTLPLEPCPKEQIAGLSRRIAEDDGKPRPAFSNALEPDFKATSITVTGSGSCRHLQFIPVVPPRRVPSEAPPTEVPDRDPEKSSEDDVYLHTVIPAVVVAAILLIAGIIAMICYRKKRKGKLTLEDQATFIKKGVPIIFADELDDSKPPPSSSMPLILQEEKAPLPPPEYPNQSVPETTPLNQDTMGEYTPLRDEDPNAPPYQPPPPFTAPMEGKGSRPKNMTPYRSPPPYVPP
UniProt Q13257, whole entry: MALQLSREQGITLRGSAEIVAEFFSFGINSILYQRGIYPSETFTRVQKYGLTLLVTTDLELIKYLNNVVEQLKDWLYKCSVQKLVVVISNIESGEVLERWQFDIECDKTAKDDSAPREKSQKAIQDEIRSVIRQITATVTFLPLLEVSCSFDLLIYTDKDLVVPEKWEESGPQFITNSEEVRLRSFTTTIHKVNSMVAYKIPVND
UniProt Q02086: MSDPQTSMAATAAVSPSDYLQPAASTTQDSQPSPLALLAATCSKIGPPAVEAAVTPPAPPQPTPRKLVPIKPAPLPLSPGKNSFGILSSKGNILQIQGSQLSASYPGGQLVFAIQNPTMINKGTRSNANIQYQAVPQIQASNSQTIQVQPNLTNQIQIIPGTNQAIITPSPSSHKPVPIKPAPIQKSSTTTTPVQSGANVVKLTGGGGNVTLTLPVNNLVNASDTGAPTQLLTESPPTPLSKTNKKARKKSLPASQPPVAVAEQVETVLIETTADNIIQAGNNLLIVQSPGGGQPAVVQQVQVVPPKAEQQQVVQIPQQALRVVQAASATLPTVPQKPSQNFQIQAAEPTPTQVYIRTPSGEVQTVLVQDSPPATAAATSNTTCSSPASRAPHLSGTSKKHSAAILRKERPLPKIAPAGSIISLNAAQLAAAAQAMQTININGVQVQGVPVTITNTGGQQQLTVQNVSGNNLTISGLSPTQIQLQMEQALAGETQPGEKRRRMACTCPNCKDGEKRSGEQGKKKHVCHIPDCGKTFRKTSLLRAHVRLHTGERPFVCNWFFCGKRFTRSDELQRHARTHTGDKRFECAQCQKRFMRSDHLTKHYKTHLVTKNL
UniProt Q13370: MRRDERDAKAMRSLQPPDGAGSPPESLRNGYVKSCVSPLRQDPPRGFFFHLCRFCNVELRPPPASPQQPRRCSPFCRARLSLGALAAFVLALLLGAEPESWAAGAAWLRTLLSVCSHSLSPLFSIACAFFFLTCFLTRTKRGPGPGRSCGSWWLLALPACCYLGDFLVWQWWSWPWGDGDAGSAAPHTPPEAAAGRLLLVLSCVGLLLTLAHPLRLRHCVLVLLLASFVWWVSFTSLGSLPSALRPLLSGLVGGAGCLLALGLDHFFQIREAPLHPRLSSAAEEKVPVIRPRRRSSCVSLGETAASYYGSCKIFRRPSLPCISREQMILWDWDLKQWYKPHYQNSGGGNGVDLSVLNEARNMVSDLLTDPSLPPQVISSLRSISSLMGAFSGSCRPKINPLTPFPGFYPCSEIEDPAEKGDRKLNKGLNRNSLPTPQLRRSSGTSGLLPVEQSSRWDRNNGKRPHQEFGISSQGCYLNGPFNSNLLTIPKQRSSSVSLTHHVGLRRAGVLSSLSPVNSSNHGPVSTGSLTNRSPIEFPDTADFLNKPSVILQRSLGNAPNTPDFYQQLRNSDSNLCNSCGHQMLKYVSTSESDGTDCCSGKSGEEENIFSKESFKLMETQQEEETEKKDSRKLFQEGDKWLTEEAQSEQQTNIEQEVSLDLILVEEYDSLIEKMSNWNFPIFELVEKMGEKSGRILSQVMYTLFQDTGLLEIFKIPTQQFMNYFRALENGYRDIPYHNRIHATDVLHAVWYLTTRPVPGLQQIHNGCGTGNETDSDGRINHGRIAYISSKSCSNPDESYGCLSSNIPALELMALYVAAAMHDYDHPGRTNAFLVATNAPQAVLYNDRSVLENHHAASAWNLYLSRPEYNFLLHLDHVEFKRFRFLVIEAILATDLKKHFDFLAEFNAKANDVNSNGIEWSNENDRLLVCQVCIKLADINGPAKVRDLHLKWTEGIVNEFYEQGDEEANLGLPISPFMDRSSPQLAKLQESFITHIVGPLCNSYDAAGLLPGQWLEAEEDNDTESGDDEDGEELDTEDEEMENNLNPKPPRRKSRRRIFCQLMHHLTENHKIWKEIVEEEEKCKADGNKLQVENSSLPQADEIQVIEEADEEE

Compound: Nc1ncnc2c1ncn2[C@@H]1O[C@H](COP(=O)(O)OP(=O)(O)OP(=O)(O)O)[C@@H](O)[C@H]1O [adenosine triphosphate]
Assay: NP40-soluble protein abundance relative to vehicle (solubility fold change) (ratio); higher = more soluble protein in presence of ATP
Procedure, shortened: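 In three independent experiments, Jurkat crude lysate made by Dounce homogenisation was treated for 10 min at room temperature and then 3 min at 37 °C with eight concentrations ranging from 0.1 to 10 mM. It was then solubilised with 0.8% NP40 plus benzonase for 60 min at 4 °C and ultracentrifuged. The supernatant was TMT-labelled for LC-MS/MS, and each value is the fold change against the detergent-processed vehicle for the same replicate, using vsn-normalised intensities.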

Target	NP40-soluble protein abundance (concentration: 1mM)	NP40-soluble protein abundance (concentration: 2mM)	NP40-soluble protein abundance (concentration: 4mM)	NP40-soluble protein abundance (concentration: 6mM)	NP40-soluble protein abundance (concentration: 8mM)	NP40-soluble protein abundance (concentration: 10mM)
CKAP5 (UniProt Q14008)	0.965 ± 0.012	0.976 ± 0.02	0.957 ± 0.023	0.984 ± 0.011	0.957 ± 0.035	0.987 ± 0.032
UniProt Q13131 and related entries	1.01 ± 0.033	0.994 ± 0.034	0.997 ± 0.051	0.994 ± 0.082	1.03 ± 0.046	1 ± 0.026
UniProt Q14139 and related entries	0.984 ± 0.079	0.993 ± 0.075	0.975 ± 0.043	0.93 ± 0.1	0.958 ± 0.012	0.967 ± 0.039
UniProt Q02338 and related entries	0.995 ± 0.089	0.983 ± 0.069	0.949 ± 0.068	0.97 ± 0.094	1.02 ± 0.035	0.999 ± 0.052
UniProt Q0VD83 and related entries	0.998 ± 0.053	1.05 ± 0.11	1.03 ± 0.089	1.012 ± 0.0083	0.972 ± 0.057	0.982 ± 0.046
NNT (UniProt Q13423)	0.9855 ± 0.0053	0.988 ± 0.017	0.963 ± 0.015	0.973 ± 0.02	0.961 ± 0.016	0.958 ± 0.03
UniProt Q12979-2|A0A0G2JQ41|Q12979 and related entries	1.03 ± 0.066	1.01 ± 0.055	0.998 ± 0.079	0.972 ± 0.093	0.991 ± 0.053	0.982 ± 0.055
PMPCA (UniProt Q10713)	1.03 ± 0.088	0.996 ± 0.063	0.979 ± 0.077	0.961 ± 0.08	1.01 ± 0.072	0.98 ± 0.041
UniProt Q13332-2|Q13332-6	0.992 ± 0.11	1.04 ± 0.081	1.04 ± 0.062	1.05 ± 0.053	1 ± 0.019	1.02 ± 0.075
EIF4EBP2 (UniProt Q13542)	1.05 ± 0.21	1.03 ± 0.21	0.994 ± 0.11	1.04 ± 0.15	1.01 ± 0.16	0.979 ± 0.073
SSRP1 (UniProt Q08945)	0.994 ± 0.051	1.02 ± 0.02	1.02 ± 0.035	1.12 ± 0.051	1.187 ± 0.0031	1.34 ± 0.066
PDAP1 (UniProt Q13442)	0.922 ± 0.2	0.859 ± 0.099	0.902 ± 0.13	1.02 ± 0.17	1.01 ± 0.084	0.994 ± 0.17
SNW1 (UniProt Q13573)	0.932 ± 0.048	0.954 ± 0.032	0.953 ± 0.02	1.03 ± 0.044	0.986 ± 0.021	1.021 ± 0.0082
FKBP4 (UniProt Q02790)	0.989 ± 0.024	0.972 ± 0.024	0.927 ± 0.027	0.959 ± 0.063	0.94 ± 0.029	0.94 ± 0.041
RAB33A (UniProt Q14088)	1.1 ± 0.11	1.06 ± 0.13	1.04 ± 0.086	1.1 ± 0.2	1.04 ± 0.19	1.08 ± 0.092
RING1 (UniProt Q06587)	1.02 ± 0.052	0.999 ± 0.021	1.03 ± 0.031	1.04 ± 0.021	1.01 ± 0.052	1.04 ± 0.028
UniProt Q12912 and related entries	1.05 ± 0.086	1.07 ± 0.058	1.05 ± 0.078	1.07 ± 0.11	1.02 ± 0.066	1.05 ± 0.043

Target	NP40-soluble protein abundance (concentration: 1mM)	NP40-soluble protein abundance (concentration: 2mM)	NP40-soluble protein abundance (concentration: 4mM)	NP40-soluble protein abundance (concentration: 6mM)	NP40-soluble protein abundance (concentration: 8mM)	NP40-soluble protein abundance (concentration: 10mM)
UniProt Q05086 and related entries	0.972 ± 0.027	0.958 ± 0.032	0.928 ± 0.025	0.945 ± 0.043	0.9466 ± 0.0092	0.935 ± 0.032
UniProt Q04724 and related entries	0.901 ± 0.021	1.04 ± 0.14	1.04 ± 0.15	0.953 ± 0.049	0.946 ± 0.12	0.982 ± 0.05
GALNT2 (UniProt Q10471)	1.02 ± 0.044	1 ± 0.059	0.975 ± 0.022	0.978 ± 0.059	0.988 ± 0.025	0.973 ± 0.036
TAF10 (UniProt Q12962)	0.988 ± 0.13	1.12 ± 0.076	1.1 ± 0.013	1.11 ± 0.16	0.996 ± 0.085	1.02 ± 0.024
BOP1 (UniProt Q14137)	1.04 ± 0.015	1.08 ± 0.05	1.08 ± 0.028	1.07 ± 0.047	1.03 ± 0.017	1.07 ± 0.03
DAG1 (UniProt Q14118)	0.969 ± 0.11	0.915 ± 0.089	0.891 ± 0.1	0.934 ± 0.076	0.875 ± 0.082	0.841 ± 0.11
UniProt Q12931 and related entries	0.997 ± 0.11	0.994 ± 0.11	0.972 ± 0.075	0.906 ± 0.16	1.01 ± 0.052	0.983 ± 0.063
IFIT5 (UniProt Q13325)	1.02 ± 0.086	0.982 ± 0.076	0.984 ± 0.05	0.959 ± 0.11	0.969 ± 0.063	0.943 ± 0.031
MAD2L1 (UniProt Q13257)	0.979 ± 0.12	0.978 ± 0.059	0.946 ± 0.07	0.892 ± 0.13	0.964 ± 0.073	0.947 ± 0.023
UNC119 (UniProt Q13432)	0.938 ± 0.065	0.975 ± 0.072	0.94 ± 0.085	0.953 ± 0.057	0.932 ± 0.025	0.933 ± 0.082
MCL1 (UniProt Q07820)	0.916 ± 0.11	0.985 ± 0.12	1.01 ± 0.082	0.907 ± 0.15	0.951 ± 0.12	0.934 ± 0.089
CDC20 (UniProt Q12834)	1.04 ± 0.066	1.1 ± 0.13	1.1 ± 0.11	1.05 ± 0.072	1.12 ± 0.044	1.09 ± 0.076
UniProt Q02086 and related entries	1 ± 0.027	1.04 ± 0.075	0.974 ± 0.028	0.994 ± 0.052	0.933 ± 0.068	0.968 ± 0.022
ITK (UniProt Q08881)	1.06 ± 0.15	0.993 ± 0.076	0.971 ± 0.074	0.897 ± 0.065	0.991 ± 0.011	0.972 ± 0.051
ROCK1 (UniProt Q13464)	0.969 ± 0.03	0.974 ± 0.03	0.952 ± 0.027	0.996 ± 0.031	0.943 ± 0.03	0.952 ± 0.045
UniProt Q13370 and related entries	1.02 ± 0.063	0.943 ± 0.055	0.939 ± 0.088	1.04 ± 0.086	1.01 ± 0.12	0.978 ± 0.088
CSTF3 (UniProt Q12996)	1.08 ± 0.039	1.07 ± 0.02	1.11 ± 0.013	1.11 ± 0.036	1.165 ± 0.008	1.17 ± 0.042

A different layout for some results above.
Target,NP40-soluble protein abundance (concentration: 1mM),NP40-soluble protein abundance (concentration: 2mM),NP40-soluble protein abundance (concentration: 4mM),NP40-soluble protein abundance (concentration: 6mM),NP40-soluble protein abundance (concentration: 8mM),NP40-soluble protein abundance (concentration: 10mM)
UniProt Q05086 and related entries,0.972 ± 0.027,0.958 ± 0.032,0.928 ± 0.025,0.945 ± 0.043,0.9466 ± 0.0092,0.935 ± 0.032
UniProt Q04724 and related entries,0.901 ± 0.021,1.04 ± 0.14,1.04 ± 0.15,0.953 ± 0.049,0.946 ± 0.12,0.982 ± 0.05
